Source: patent US20130253056A1, “Continuous Administration of Levodopa and/or Dopa Decarboxylase Inhibitors and Compositions for Same” (NEURODERM, LTD., priority 2009, published 2013)
Some results were stated once for a whole list of compounds, not compound by compound. For at least one compound, name, drawing or mass did not settle the structure.

Test: Intravenous infusion of LD esters in pigs
Format: in vivo
Conditions: following 1 h continuous IV administration, 60 mg/h

With `CCCOC(=O)[C@@H](N)Cc1ccc(O)c(O)c1` [LD Propyl Ester, levodopa propyl ester] the LD plasma levels was “at least 1000 ng/ml”.
